Some entries share one result that the patent states for a list of compounds.
Test system: mouse embryonic fibroblasts (MEFs)
Assay: ImageXpress microscopy cellular uptake of FITC-peptides (TIFI)
Format: cell-based
Settings: MEFs 2×10^4 cells/well, 500 nM FITC-peptide, 4 h, 0% FBS, per cell basis; listed as XAYYX
From the text: The cellular penetrance of a peptide of interest can be assessed by any method known in the art. For example, ImageXpress microscopy analysis may be employed as described in Example 1. The total internalized FITC intensity (TIFI) can be used as a way to determine cellular uptake of a hydrocarbon-stapled and/or stitched peptide by a cell (e.g., any cell described herein). Methods of determining TIFI are described in detail in Examples 2 and 3 of the instant specification. Briefly, a custom module (CM) was created to develop a rigorous quantitation platform for measuring cellular uptake of hydrocarbon-stapled and/or stitched peptides derivatized with a FITC fluorophore at the N-terminus. The CM was developed based on (1) defining the parameters of cellular uptake (e.g., excluding extracellular aggregates and auto-fluorescent debris), (2) defining a pixel boundary to avoid quantitation of extracellular, membrane-adherent peptides, (3) excluding out-of-focus fluorescence from the FITC signal outliers. Once the CM parameters are set, images can be acquired at 20× and 40× magnification for per cell basis fluorescence, and four distinct central locations of the cellular field are visualized. Next signal-to-noise ratios are maximized to ensure optimal sensitivity and specificity of internal FITC-peptide signal. […]

CC[C@H](C)[C@H](NC(=O)CCNC(=S)Nc1ccc2c(c1)C(=O)OC21c2ccc(O)cc2Oc2cc(O)ccc21)C(=O)N[C@@H](Cc1c[nH]c2ccccc12)C(=O)N[C@H](C(=O)N[C@@H](C)C(=O)N[C@@H](CCC(N)=O)C(=O)N[C@@H](CCC(=O)O)C(=O)N[C@@H](CC(C)C)C(=O)N[C@@H](CCCNC(=N)N)C(=O)N[C@@H](CCCNC(=N)N)C(=O)N[C@H](C(=O)NCC(=O)N[C@@H](CC(=O)O)C(=O)N[C@@H](CCC(=O)O)C(=O)N[C@@H](Cc1ccccc1)C(=O)N[C@@]1(C)CCCC=CCCC[C@@](C)(C(=O)N[C@@H](CCCNC(=N)N)C(=O)N[C@@H](CCCNC(=N)N)C(N)=O)NC(=O)[C@H](Cc2ccc(O)cc2)NC(=O)[C@H](Cc2ccc(O)cc2)NC(=O)[C@H](C)NC1=O)[C@@H](C)CC)[C@@H](C)CC [AYY, IWIAQELRRIGDEFXAYYXARR]
total internalized FITC intensity (TIFI), cellular uptake: > 0.8×10^6
